At least one compound was matched to its structure with a doubt left.
Molecular target: T1, human renal renin (Homo sapiens, UniProt P00797)
T1 construct: human renal renin, free from acid proteolytic activity; from tissue; host or cells: human kidney (from the word 'renal')
T1 sequence (P00797 67-406): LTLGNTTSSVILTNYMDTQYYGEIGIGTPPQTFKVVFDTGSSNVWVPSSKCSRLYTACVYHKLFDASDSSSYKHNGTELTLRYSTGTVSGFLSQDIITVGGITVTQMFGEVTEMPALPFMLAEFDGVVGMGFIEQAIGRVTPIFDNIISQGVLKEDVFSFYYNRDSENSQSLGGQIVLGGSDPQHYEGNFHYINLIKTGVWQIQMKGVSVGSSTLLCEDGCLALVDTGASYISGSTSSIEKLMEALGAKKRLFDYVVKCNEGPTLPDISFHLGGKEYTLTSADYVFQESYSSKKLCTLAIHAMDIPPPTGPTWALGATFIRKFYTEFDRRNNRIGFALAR
Test: inhibition of human renal renin in vitro, angiotensin I formed measured by radioimmunoassay
Type: biochemical
Details: human renal renin with human renin substrate (angiotensinogen), 37° C., pH 6.0
Experimental: At the end of the incubation, the amount of angiotensin I formed is measured by radioimmunoassay and the molor concentration required to cause 50% inhibition, expressed as the IC50, is calculated.

SMILES: CC(C)CCC(=O)NCC[C@H](O)[C@H](CC1CCCCC1)NC(=O)C(Cc1ccccc1)NC(=O)C(Cc1ccccc1)NC(=O)OC(C)(C)C (stereo partly drawn) [Example 53, Boc-Phe-Phe Amide of (3S,4S)-1-(3-Methylbutylcarbonylamino)-3-hydroxy-4-amino-5-cyclohexylpentane]
- ACTIVITY - IC50 (M): l.5 × 10^-8 M

From US4857507A, “Angiotensinogen analogs” (Abbott Laboratories, priority 1987, dated 1989)
